Reference: PubChem BioAssay AID1159508 (Drosophila RNAi Screening Center, 2015)

Assay: 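Viability reference data for a dsRNA library against RNA-binding protein genes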
Cells: Drosophila S2R+ cells
Reagent: long dsRNA against Drosophila genes
Time to read-out: 5 days
Measured: 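Total ATP per well measured by luciferase luminescence after 5 days, expressed as z-scores for each replicate and as their average across up to three replicates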
Scale: mean ATP z-score and ATP z-score: higher = more total ATP luminescence
Call rule: In these data the active calls have mean ATP z-score at about -2 or lower, or at about 2 or higher
Calls: active = strong ATP change (up or down); inactive = no strong ATP change
Shown is one part, drawn at random, of 812 reagents tested. Over the whole deposit, 18 (2.2%) got an active call. 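Calls include both increased and decreased ATP; roughly one in four reagents has no third replicate value.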 Not given: the amount of reagent.

no.	gene	PubChem SID	mean ATP z-score	ATP z-score, replicate 1	ATP z-score, replicate 2	ATP z-score, replicate 3	activity call
1	CG4119	SID104206489	1.51	0.717	2.11		inactive
2	CG4119	SID104212894	0.601	-0.159	0.636	1.21	inactive
3	Hrb27C	SID104206867	-1.25	-1.71	-1.03	-0.759	inactive
4	Hrb27C	SID104210082	0.339	0.238	0.397		inactive
5	stau	SID104187490	0.343	0.0751	0.178	0.711	inactive
6	stau	SID104212054	1.63	1.28	1.32	1.98	inactive
7	eIF3f1	SID104192120	0.916	0.616	0.871	1.09	inactive
8	eIF3f1	SID104210041	0.508	0.114	0.412	0.901	inactive
9	CG33158	SID104189500	-0.361	-1.18	-0.0301	0.192	inactive
10	CG33158	SID104190230	-0.347	-0.458	-0.301	-0.217	inactive
11	Ref2	SID104182355	-0.0651	-0.631	-0.243	0.692	inactive
12	Ref2	SID251911357	-0.847	-0.895	-0.878	-0.605	inactive
13	Rbp1	SID104196609	-0.39	-0.795	-0.298	-0.000914	inactive
14	Rbp1	SID251911413	0.104	-0.534	0.405	0.423	inactive
15	orb	SID104211862	-0.46	-1.11	0.25		inactive
16	orb	SID104211863	0.481	-0.0524	0.615	0.787	inactive
17	Srp54	SID104183234	-0.687	-0.845	-0.566	-0.517	inactive
18	Srp54	SID104210573	-0.495	-0.487	-0.455	-0.448	inactive
19	msi	SID104196795	2.74	1.9	2.61	3.19	active
20	msi	SID104211858	1.19	0.777	1.45		inactive
21	BicC	SID104181797	0.441	-0.168	0.2	1.21	inactive
22	BicC	SID104208220	-0.231	-0.359	-0.074		inactive
23	Dp1	SID104187195	0.739	0.345	0.736	0.995	inactive
24	Dp1	SID104213276	1.01	0.76	0.921	1.14	inactive
25	eIF2D	SID104193708	0.818	0.7	0.831		inactive
26	eIF2D	SID251911402	0.349	-0.379	0.0655	1.29	inactive
27	SNRPG	SID104199999	-0.333	-0.445	-0.357	-0.134	inactive
28	SNRPG	SID104213198	0.605	-0.0822	0.855	0.926	inactive
29	clu	SID104186973	-0.168	-0.395	-0.0498	-0.0281	inactive
30	clu	SID104207822	-0.278	-0.406	-0.377	0.00167	inactive
31	Hen1	SID104205537	-0.37	-0.477	-0.216		inactive
32	Hen1	SID104211505	0.119	-0.295	0.174	0.456	inactive
33	msl-3	SID104191163	1.24	0.718	0.927	1.83	inactive
34	msl-3	SID104213447	0.29	0.19	0.353		inactive
35	CG34334	SID104200435	0.343	0.12	0.143	0.698	inactive
36	CG34334	SID104216362	-0.506	-0.809	-0.138		inactive
37	Son	SID104196192	0.383	0.111	0.411	0.552	inactive
38	Son	SID251911387	0.679	0.387	0.547	0.973	inactive
39	Top2	SID104183251	-0.424	-0.398	-0.396		inactive
40	Top2	SID104218264	0.738	0.386	0.767	0.919	inactive
41	eEF1beta	SID104203156	-0.642	-0.921	-0.734	-0.146	inactive
42	eEF1beta	SID251911330	0.505	0.207	0.544	0.668	inactive
43	DCP2	SID104190389	2.24	1.94	2.25		active
44	DCP2	SID104212466	0.537	-0.0272	0.347	1.19	inactive
45	CG7878	SID104196122	-0.239	-0.309	-0.195	-0.167	inactive
46	CG7878	SID104202979	-0.541	-0.717	-0.622	-0.179	inactive
47	CG10948	SID104189598	0.471	0.0559	0.547	0.72	inactive
48	CG10948	SID104216927	-0.333	-0.404	-0.219		inactive
49	pea	SID104208252	0.0025	-0.275	0.279		inactive
50	pea	SID104209745	-0.198	-0.494	-0.301	0.24	inactive
51	CG42259	SID104213614	0.499	0.0696	0.264	1.07	inactive
52	CG42259	SID104218175	-0.538	-0.536	-0.47		inactive
53	srl	SID104208105	1.13	0.572	1.27	1.33	inactive
54	srl	SID104212406	0.394	0.0513	0.286	0.769	inactive
55	HBS1	SID104206970	-0.134	-0.291	0.04		inactive
56	HBS1	SID104213356	1.53	0.816	1.62	1.86	inactive
57	NAT1	SID104208597	-1.61	-1.63	-1.39		inactive
58	NAT1	SID104211001	-0.834	-0.883	-0.736	-0.723	inactive
59	cpo	SID104202363	1.31	0.471	0.947	2.27	inactive
60	cpo	SID104216518	0.407	-0.268	0.611	0.8	inactive
